# Measured values reported in the supplement of paper PMC4604168 (melanoma cell lines).
# The list shows a part of the results. Repeats are few or missing, and single values can be far off.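 Imaging used 1,536-well plates; nuclei positive for cleaved PARP by antibody were divided by total DNA-stained nuclei to yield the apoptosis fraction. Doses for screening kept most cells viable, and cell lines differ markedly in resting and induced cleaved-PARP levels.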
# Test system: UACC257
# Test: cleaved PARP positive nuclei fraction relative to DMSO control; melanoma cells; higher = more apoptosis
# Details: library dose: low library concentration; 72 h
row,SMILES,cleaved PARP positive nuclei fraction [%]
1,"COc1ccc(C2=N[C@@H](c3ccc(Cl)cc3)[C@@H](c3ccc(Cl)cc3)N2C(=O)N2CCNC(=O)C2)c(OC(C)C)c1 [Nutlin-3] + COc1ccc2c(c1)CCC1C2CCC2(C)C(NCCCCCCN3C(=O)C=CC3=O)CCC12 [U73122] (first compound 0.1 µM, partner dose 0.4 µM)",215
2,"CS(=O)(=O)c1ccc(C(=O)Nc2ccc(Cl)c(-c3ccccn3)c2)c(Cl)c1 [vismodegib] + Cc1cc(N2CCOCC2)cc2[nH]c(-c3c(NC[C@@H](O)c4cccc(Cl)c4)cc[nH]c3=O)nc12 [BMS536924] (first compound 1 µM, partner dose 0.2 µM)",73.6
3,"CC1(C)CCC(c2ccc(Cl)cc2)=C(CN2CCN(c3ccc(C(=O)NS(=O)(=O)c4ccc(N[C@H](CCN5CCOCC5)CSc5ccccc5)c(S(=O)(=O)C(F)(F)F)c4)cc3)CC2)C1 + Cc1cc(N2CCOCC2)cc2[nH]c(-c3c(NC[C@@H](O)c4cccc(Cl)c4)cc[nH]c3=O)nc12 [BMS536924] (first compound 0.4 µM, partner dose 0.2 µM)",249
4,"CC(=O)O[C@@]12CO[C@@H]1C[C@H](O)[C@@]1(C)C(=O)[C@H](O)C3=C(C)[C@@H](OC(=O)[C@H](O)[C@@H](NC(=O)OC(C)(C)C)c4ccccc4)C[C@@](O)([C@@H](OC(=O)c4ccccc4)[C@H]21)C3(C)C [Docetaxel] + Cc1ccc(NC(=O)c2cccc(N(C)C)c2)cc1NC(=O)c1ccc(O)cc1 [ZM336372] (first compound 0.0001 µM, partner dose 2 µM)",140
5,"C[C@@H](N)c1ccc(C(=O)Nc2ccnc3[nH]ccc23)cc1 + COc1cc(N2CCC(N3CCN(C)CC3)CC2)ccc1Nc1ncc(Cl)c(Nc2ccccc2S(=O)(=O)C(C)C)n1 [NVP-TAE684] (first compound 0.4 µM, partner dose 0.08 µM)",66.7
6,"CCN(CC)CCNC(=O)c1c(C)[nH]c(/C=C2\C(=O)Nc3ccc(F)cc32)c1C [sunitinib] + O=c1cc(-c2cccc3c2Sc2ccccc2S3)oc(N2CCOCC2)c1 [KU55933] (first compound 0.4 µM, partner dose 1 µM)",130
7,"C[C@]1(O)C[C@@H](c2nc(-c3ccc4ccc(-c5ccccc5)nc4c3)c3c(N)nccn32)C1 + O=C(Nc1ccccc1)c1cc([N+](=O)[O-])ccc1Cl [GW9662] (first compound 0.4 µM, partner dose 2 µM)",210
8,"CCCCCCCCc1ccc(CCC(N)(CO)CO)cc1 [fingolimod] + NCC(=O)Nc1ccc(-n2nc(C(F)(F)F)cc2-c2ccc3c(ccc4ccccc43)c2)cc1 [OSU03012] (first compound 2 µM, partner dose 1 µM)",125
9,"CC1(C)CCC(c2ccc(Cl)cc2)=C(CN2CCN(c3ccc(C(=O)NS(=O)(=O)c4ccc(N[C@H](CCN5CCOCC5)CSc5ccccc5)c(S(=O)(=O)C(F)(F)F)c4)cc3)CC2)C1 + CO[C@@H]1[C@H](N(C)C(=O)c2ccccc2)C[C@H]2O[C@]1(C)n1c3ccccc3c3c4c(c5c6ccccc6n2c5c31)C(=O)NC4 [Midostaurin] (first compound 0.4 µM, partner dose 0.08 µM)",173
10,"C[C@]1(O)C[C@@H](c2nc(-c3ccc4ccc(-c5ccccc5)nc4c3)c3c(N)nccn32)C1 + Cc1cc([N+](=O)[O-])ccc1NS(=O)(=O)c1cc(Cl)ccc1Cl [FH535] (first compound 0.4 µM, partner dose 1 µM)",24.1

# Random excerpt: 2 records from the list
row,SMILES,cleaved PARP positive nuclei fraction [%]
9,"CC1(C)CCC(c2ccc(Cl)cc2)=C(CN2CCN(c3ccc(C(=O)NS(=O)(=O)c4ccc(N[C@H](CCN5CCOCC5)CSc5ccccc5)c(S(=O)(=O)C(F)(F)F)c4)cc3)CC2)C1 + CO[C@@H]1[C@H](N(C)C(=O)c2ccccc2)C[C@H]2O[C@]1(C)n1c3ccccc3c3c4c(c5c6ccccc6n2c5c31)C(=O)NC4 [Midostaurin] (first compound 0.4 µM, partner dose 0.08 µM)",173
8,"CCCCCCCCc1ccc(CCC(N)(CO)CO)cc1 [fingolimod] + NCC(=O)Nc1ccc(-n2nc(C(F)(F)F)cc2-c2ccc3c(ccc4ccccc43)c2)cc1 [OSU03012] (first compound 2 µM, partner dose 1 µM)",125
